# Reference: PubChem BioAssay AID1224826 (NIAID, 2016)
# Aim: 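Genes that change LPS-induced Tnf promoter activity in mouse macrophages when knocked down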 (primary screen)
# Cell system: RAW264.7 G9 macrophages from mouse bearing reporters for p65 (GFP) and the Tnf promoter (mCherry)
# Reagents: siRNA pool against mouse genes, 100 nM
# Timing: 16 h of LPS stimulation, after 2 days of siRNA transfection
# Treatment: bacterial lipopolysaccharide (Salmonella minnesota R595), 10 ng/ml
# Measured: 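Imaged Tnf reporter mCherry in nuclei, minus background, normalised per plate to the median and expressed as robust z-scores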
# Scale: Tnf reporter robust z-score: higher = stronger Tnf promoter reporter signal after LPS; Tnf reporter intensity: higher = stronger Tnf promoter reporter signal
# Call rule: 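Called active when robust z-score is at most -1.3, matching the median of the Tlr4 knock-down control, or over 3; control wells and wells with under 50 cells never active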
# Calls: active = Tnf reporter clearly lowered or raised; inactive = no clear change in Tnf reporter
# Here is an unselected part of about 17,000 reagents. Over the whole deposit, about 1,110 (6.6%) are marked active. 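Active means lowered or raised reporter signal; replicate intensities are raw and not normalised per plate.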 Further read-outs or replicates are left out here.
gene symbol,Tnf reporter robust z-score,fewer than 50 cells in well,"Tnf reporter intensity, replicate 1",outcome
Ndst2 (N-deacetylase/N-sulfotransferase (heparan glucosaminyl) 2),0.15,enough cells in well,210,inactive
Hp (haptoglobin),0.41,enough cells in well,268,inactive
Or4c114 (olfactory receptor family 4 subfamily C member 114),0.91,enough cells in well,211,inactive
Rgr (retinal G protein coupled receptor),0.56,enough cells in well,364,inactive
Abi1 (abl interactor 1),0.24,enough cells in well,214,inactive
"Card19 (caspase recruitment domain family, member 19)",2.08,enough cells in well,423,inactive
Ndufs2 (NADH:ubiquinone oxidoreductase core subunit S2),-0.05,enough cells in well,251,inactive
Gtpbp6 (GTP binding protein 6 (putative)),-0.21,enough cells in well,146,inactive
Or8u9 (olfactory receptor family 8 subfamily U member 9),-0.03,enough cells in well,161,inactive
Rb1cc1 (RB1-inducible coiled-coil 1),1.14,enough cells in well,373,inactive
Ager (advanced glycosylation end product-specific receptor),-0.31,enough cells in well,124,inactive
Mgarp (mitochondria localized glutamic acid rich protein),-0.24,enough cells in well,175,inactive
H4c14 (H4 clustered histone 14),-0.61,enough cells in well,198,inactive
Tspan1 (tetraspanin 1),-0.92,enough cells in well,141,inactive
Gpd1 (glycerol-3-phosphate dehydrogenase 1 (soluble)),-0.24,enough cells in well,191,inactive
"Ppp1r7 (protein phosphatase 1, regulatory subunit 7)",0.14,enough cells in well,270,inactive
Gtf2e2,-0.15,enough cells in well,242,inactive
Ugp2 (UDP-glucose pyrophosphorylase 2),1.28,enough cells in well,249,inactive
"Tbc1d24 (TBC1 domain family, member 24)",-0.26,enough cells in well,107,inactive
Slc7a8,-0.13,enough cells in well,108,inactive
"Cyp2a4 (cytochrome P450, family 2, subfamily a, polypeptide 4)",-0.57,enough cells in well,204,inactive
"Tnfrsf13c (tumor necrosis factor receptor superfamily, member 13c)",-1.9,enough cells in well,46,active
Asb18 (ankyrin repeat and SOCS box-containing 18),2.91,enough cells in well,331,inactive
"Etfdh (electron transferring flavoprotein, dehydrogenase)",0.13,enough cells in well,239,inactive
Riox1 (ribosomal oxygenase 1),,fewer than 50 cells per well; well left out of calls,190,inactive
Hoxa3 (homeobox A3),-1.1,enough cells in well,196,inactive
Unc5a (unc-5 netrin receptor A),-1.01,enough cells in well,80,inactive
Colec12 (collectin sub-family member 12),1.67,enough cells in well,315,inactive
Klhl9 (kelch-like 9),-0.74,enough cells in well,90.6,inactive
Cdip1 (cell death inducing Trp53 target 1),0.64,enough cells in well,229,inactive
Lemd2 (LEM domain containing 2),0.28,enough cells in well,230,inactive
Cdca2 (cell division cycle associated 2),1.53,enough cells in well,351,inactive
Rnd2 (Rho family GTPase 2),0.43,enough cells in well,362,inactive
Med24 (mediator complex subunit 24),0.03,enough cells in well,249,inactive
Spi1 (Spi-1 proto-oncogene),-1.55,enough cells in well,113,active
"Lgi2 (leucine-rich repeat LGI family, member 2)",-0.04,enough cells in well,176,inactive
Fus (fused in sarcoma),0.18,enough cells in well,296,inactive
Csad (cysteine sulfinic acid decarboxylase),-0.78,enough cells in well,179,inactive
Or7e170 (olfactory receptor family 7 subfamily E member 170),-0.5,enough cells in well,286,inactive
"Sugt1 (SGT1, suppressor of G2 allele of SKP1 (S. cerevisiae))",,fewer than 50 cells per well; well left out of calls,39.8,inactive
